In the supplement of paper PMC3334620:
In all, about 33,000 sequences were measured (“E-score (-0.5 to 0.5)”: median about -8e-05, highest 2% from about 0.23 on). The list shows a part of the results.

Target: T1, Nrg2 (UniProt P38082)
T1 sequence: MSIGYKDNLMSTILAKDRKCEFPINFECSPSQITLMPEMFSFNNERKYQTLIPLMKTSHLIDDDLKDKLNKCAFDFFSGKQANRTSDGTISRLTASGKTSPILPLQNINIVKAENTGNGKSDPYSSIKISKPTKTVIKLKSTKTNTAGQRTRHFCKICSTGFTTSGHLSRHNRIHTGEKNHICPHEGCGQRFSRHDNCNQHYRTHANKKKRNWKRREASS
Experiment: PBM E-score (8-mer binding enrichment) (E-score (-0.5 to 0.5)); higher = stronger / more preferred TF binding
Details: protein concentration: 100 nM; construct: GST-full length
How it was run: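 E-scores (a modified Wilcoxon-Mann-Whitney statistic) were assigned by the Universal PBM Analysis Suite to every ungapped eight-base word pooled with its reverse complement. The input came from universal all-10-mer Agilent arrays made double-stranded by primer extension and probed with GST-tagged yeast transcription factors at about 100-200 nM. Fluorescent anti-GST detected bound protein, and masliner normalised the scans.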

Sequence | PBM E-score
CGACGGAG | -0.0561
ATTGATGG | 0.12
CACCGGTG | -0.257
CCGTTCAC | -0.146
GAAGGTCA | -0.204
CCTACGAA | -0.00141
ACCTCCTC | -0.259
CCGAAAGA | -0.0556
CTTGTGTA | 0.0975
CCCTTCTC | -0.205
GAATCTCC | -0.0275
CGCATCGC | -0.2
ATATAGAT | 0.0507
GTCGTGTA | 0.0206
AACCCACG | 0.067
CACCCCAG | 0.0184
AGGTTGGG | -0.086
AATCCACA | -0.00959
CCGTCAAC | -0.197
AGTATGAC | 0.0675
AATATCCA | 0.112
TCACCCCA | 0.113
GCGATGAC | -0.0214
GAGTGGAC | 0.00399
CCGTGATA | -0.147

Sequence | PBM E-score
AAAATGTG | 0.141
ACCCTCAC | -0.121
AAACCAGG | 0.071
ATAGCTGA | 0.0222
GATTTCCA | 0.0729
AAGCTAGA | -0.029
CGCACCTC | -0.202
GGAAGATA | 0.0956
CAGTTGCA | 0.0592
GTAGCAAA | 0.0619
CATGTTAC | 0.137
CCGGCCGA | -0.00544
CCATAGCC | -0.175
CAGCCCCG | -0.0989
TAGCGTCA | -0.158
ATCGGCAT | 0.124
CACTCTTC | -0.0562
GTTAATGA | 0.0108
CACGCAGG | 0.0602
AAGACATC | -0.123
CGACAGCC | 0.026
GGTCCATA | -0.0767
ATCCTGGA | -0.0444
ATGATTTC | 0.164
GTGAAACA | -0.0388

Sequence | PBM E-score
CCCCCAGG | -0.262
GTAGCCTA | -0.307
CGACATTA | 0.0834
CGTAAAAC | -0.0855
GCATTGAA | 0.0708
GTAGCGAC | -0.0189
AGGTAGTC | -0.159
GGCCTAGA | -0.0429
AGCCAGAC | -0.0854
ACTCTGAC | 0.0113
GACAGGAC | 0.0451
ACTCATCG | -0.0915
GGCCAGGA | 0.022
CGTGTCCC | -0.104
CATAAATG | -0.0903
AACTTACA | -0.00732
GCTAACGA | 0.00599
ACACCCAT | 0.107
CATCTTTC | 0.0807
GCGCTACA | -0.0171
AATGGCGT | 0.0608
AAATTCCC | -0.0547
AAATGTCC | -0.181
GGGGGATA | -0.305
AAGGCACG | 0.184

Sequence | PBM E-score
AAGTAAGA | 0.0208
AACAAGCG | 0.147
CCTTACAC | -0.0485
TACACAGA | 0.0516
TACCGAAA | -0.0545
AAGAAGCT | -0.0615
ATGCTTAG | 0.0462
CTTAGCGA | -0.00987
GCGTTGCC | 0.117
AGCGCCTG | -0.1
ACTTACAC | -0.0439
GACCATTA | -0.084
AATGAGTC | 0.0517
CAATGTCG | 0.123
GGACGCCA | -0.149
CATAGGGG | 0.138
GCCGACCA | -0.0502
AGACTACT | 0.0253
ACAAATGA | 0.0346
AGGTAAGG | 0.0256
CGAGCCGC | 0.0171
ATCCTAAC | 0.132
AGAGACAA | -0.0415
TGAGCTAA | -0.115
CAAACTCC | 0.0622

Sequence | PBM E-score
GATAGGCA | 0.00785
GGAGCTAA | -0.14
AACATGGT | -0.0362
TATGAAAA | 0.106
GAACTGGA | 0.161
ATGGTCAG | 0.22
CGCGTGAA | 0.113
AGGATTAA | 0.0186
GACTTGAC | -0.199
CCCTGTCC | 0.0104
AATGAAGC | -0.0531
CCGTCTTA | -0.209
CGAATGTA | -0.0454
AATCGCTG | 0.0248
ATGTAATC | -0.038
AATCCCCC | -0.367
GCGGCAAA | 0.0297
CTGCAAAC | -0.115
CGCCATTA | 0.0563
CAGCAAGA | 0.135
CAATATTA | 0.154
CTCCTAAA | -0.27
TAGGAAAA | -0.00822
ACCGCTTA | -0.143
AAGCTCGG | 0.0866

Sequence | PBM E-score
AGAGCTGA | 0.00384
AGAGATTG | 0.108
ATTGTTCC | 0.0549
AGTCGGCA | -0.0423
GCGCAGCC | -0.155
AGGCGGAG | 0.0503
AACGGAGC | -0.122
CCCCGTAC | -0.0792
GGCTGCCA | -0.173
AAGTCACT | -0.0972
CACACGTC | -0.119
CAGATGTC | -0.0913
ACTCCCGG | -0.0764
CCTCCCTA | -0.208
CTCAGCTC | -0.0635
GATGGAGA | -0.0382
ATGACAGC | 0.0799
GAGGAAGC | -0.081
CTCGATCC | -0.0858
CTTTAAGC | 0.0711
ACGGGGCC | 0.0169
CTCTACCC | 0.0309
GGGAACAC | 0.00396
AAGATCTC | -0.167
CGACCAAC | -0.0659

Some values from the results shown.
GCATTGAA – PBM E-score: 0.0708
AAGATCTC – PBM E-score: -0.167
CCGAAAGA – PBM E-score: -0.0556

The results go on:

Sequence | PBM E-score
AATACTAG | 0.241
AGACACCG | -0.0381
TCATCAGA | 0.0269
ACCCATGC | -0.0641
GGTGGTAC | -0.202
AACCAACG | -0.0329
TATTTCGA | 0.183
GGTGAGTA | -0.041
AGCAGCGC | 0.08
CAAAACCC | 0.222
AGTAGCAA | 0.102
CACTCATC | 0.0506
CCAGCGTC | -0.143
AGACCCAA | -0.00312
CGCGCCAC | 0.131
GTGCGAAA | -0.0208
GTGGAAAA | 0.0167
AGACCACG | -0.159
AAACAAGA | 0.0965
AGGACTTC | -0.139
GTCACTGA | 0.0637
CATCTTCG | 0.0326

A different layout for some results above.
GAATCTCC
  PBM E-score = -0.0275
AACCCACG
  PBM E-score = 0.067
AAAATGTG
  PBM E-score = 0.141
GCGCTACA
  PBM E-score = -0.0171
